# ± gives the standard deviation of the averaged measurements. This is a selection; strong and weak results do not stand in their true shares.
# By UniProt entry, the sequences of proteins in these tests, tags left out. Where a name states a change or a piece, a line headed by the entry shows the natural chain unless it says otherwise.
# UniProt Q9UKF7: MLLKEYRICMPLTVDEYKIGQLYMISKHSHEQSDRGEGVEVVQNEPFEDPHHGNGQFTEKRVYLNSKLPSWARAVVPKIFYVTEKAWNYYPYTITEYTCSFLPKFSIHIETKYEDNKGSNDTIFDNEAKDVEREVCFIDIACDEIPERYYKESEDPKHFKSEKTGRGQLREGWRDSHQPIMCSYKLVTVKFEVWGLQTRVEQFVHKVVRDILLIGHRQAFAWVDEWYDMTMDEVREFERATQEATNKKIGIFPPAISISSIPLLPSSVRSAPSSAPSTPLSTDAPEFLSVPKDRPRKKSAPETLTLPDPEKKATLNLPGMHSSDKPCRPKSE
# UniProt P62070: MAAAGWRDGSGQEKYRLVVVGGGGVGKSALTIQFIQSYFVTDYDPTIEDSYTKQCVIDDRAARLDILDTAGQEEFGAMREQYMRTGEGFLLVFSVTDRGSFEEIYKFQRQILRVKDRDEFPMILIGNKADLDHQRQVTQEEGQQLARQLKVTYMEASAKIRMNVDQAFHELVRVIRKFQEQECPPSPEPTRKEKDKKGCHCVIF
# UniProt P42765: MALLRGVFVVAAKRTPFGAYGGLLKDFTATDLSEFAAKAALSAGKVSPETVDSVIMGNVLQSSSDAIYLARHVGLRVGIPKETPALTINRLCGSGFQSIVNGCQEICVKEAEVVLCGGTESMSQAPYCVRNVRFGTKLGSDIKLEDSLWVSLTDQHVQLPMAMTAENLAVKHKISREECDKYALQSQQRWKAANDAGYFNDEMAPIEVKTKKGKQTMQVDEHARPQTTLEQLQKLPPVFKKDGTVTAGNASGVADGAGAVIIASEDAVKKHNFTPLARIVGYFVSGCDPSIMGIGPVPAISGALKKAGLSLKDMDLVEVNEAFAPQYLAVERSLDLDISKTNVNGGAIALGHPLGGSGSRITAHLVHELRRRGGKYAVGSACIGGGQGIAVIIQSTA
# UniProt Q9H0U3: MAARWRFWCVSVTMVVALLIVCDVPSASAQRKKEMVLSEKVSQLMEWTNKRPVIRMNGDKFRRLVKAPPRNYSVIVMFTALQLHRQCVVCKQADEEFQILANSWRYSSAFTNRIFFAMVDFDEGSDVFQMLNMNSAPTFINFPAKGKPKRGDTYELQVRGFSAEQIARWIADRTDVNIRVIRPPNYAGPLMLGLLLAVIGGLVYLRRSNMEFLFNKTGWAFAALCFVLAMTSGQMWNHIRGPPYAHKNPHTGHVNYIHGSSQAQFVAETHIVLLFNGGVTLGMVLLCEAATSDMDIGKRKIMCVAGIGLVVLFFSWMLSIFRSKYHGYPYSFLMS
# UniProt Q8N2M8: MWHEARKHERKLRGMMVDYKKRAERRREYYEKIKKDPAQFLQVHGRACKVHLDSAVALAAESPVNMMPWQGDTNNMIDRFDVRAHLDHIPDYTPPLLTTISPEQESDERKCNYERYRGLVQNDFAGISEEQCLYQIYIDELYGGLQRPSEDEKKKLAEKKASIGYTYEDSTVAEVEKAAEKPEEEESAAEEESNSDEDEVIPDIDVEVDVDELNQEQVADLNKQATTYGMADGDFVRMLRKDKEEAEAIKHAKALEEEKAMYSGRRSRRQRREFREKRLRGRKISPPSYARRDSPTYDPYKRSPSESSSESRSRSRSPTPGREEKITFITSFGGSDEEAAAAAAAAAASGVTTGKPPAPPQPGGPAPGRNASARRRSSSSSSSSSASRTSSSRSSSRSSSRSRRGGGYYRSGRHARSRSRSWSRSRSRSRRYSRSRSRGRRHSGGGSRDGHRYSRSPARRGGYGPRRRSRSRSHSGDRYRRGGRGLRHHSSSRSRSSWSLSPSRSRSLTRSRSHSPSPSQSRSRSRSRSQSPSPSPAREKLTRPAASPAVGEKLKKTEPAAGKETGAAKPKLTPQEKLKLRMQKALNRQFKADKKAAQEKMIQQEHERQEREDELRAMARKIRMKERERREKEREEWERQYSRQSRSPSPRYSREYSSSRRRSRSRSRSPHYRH
# UniProt Q13418: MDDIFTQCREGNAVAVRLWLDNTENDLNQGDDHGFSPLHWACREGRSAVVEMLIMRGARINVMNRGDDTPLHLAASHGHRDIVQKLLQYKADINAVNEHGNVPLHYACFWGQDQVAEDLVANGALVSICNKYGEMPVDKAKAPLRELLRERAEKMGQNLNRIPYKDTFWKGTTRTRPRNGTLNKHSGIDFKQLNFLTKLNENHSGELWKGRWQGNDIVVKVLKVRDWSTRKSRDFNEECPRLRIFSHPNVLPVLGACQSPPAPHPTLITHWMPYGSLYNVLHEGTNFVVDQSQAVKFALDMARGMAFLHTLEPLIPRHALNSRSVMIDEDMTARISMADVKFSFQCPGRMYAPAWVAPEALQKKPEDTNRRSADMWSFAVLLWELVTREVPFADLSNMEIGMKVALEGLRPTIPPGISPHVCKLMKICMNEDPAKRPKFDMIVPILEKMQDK
# UniProt Q6PIU2: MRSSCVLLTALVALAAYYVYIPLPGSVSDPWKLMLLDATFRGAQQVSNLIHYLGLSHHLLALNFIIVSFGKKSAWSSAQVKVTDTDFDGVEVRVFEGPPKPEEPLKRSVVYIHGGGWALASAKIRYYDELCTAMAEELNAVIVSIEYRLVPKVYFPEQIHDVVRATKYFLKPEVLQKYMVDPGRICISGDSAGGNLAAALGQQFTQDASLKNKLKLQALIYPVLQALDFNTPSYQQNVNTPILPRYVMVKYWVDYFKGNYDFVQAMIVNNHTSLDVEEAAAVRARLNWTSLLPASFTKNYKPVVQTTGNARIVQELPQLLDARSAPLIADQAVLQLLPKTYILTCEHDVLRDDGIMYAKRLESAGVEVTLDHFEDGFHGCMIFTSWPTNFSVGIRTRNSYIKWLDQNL
# UniProt P15151: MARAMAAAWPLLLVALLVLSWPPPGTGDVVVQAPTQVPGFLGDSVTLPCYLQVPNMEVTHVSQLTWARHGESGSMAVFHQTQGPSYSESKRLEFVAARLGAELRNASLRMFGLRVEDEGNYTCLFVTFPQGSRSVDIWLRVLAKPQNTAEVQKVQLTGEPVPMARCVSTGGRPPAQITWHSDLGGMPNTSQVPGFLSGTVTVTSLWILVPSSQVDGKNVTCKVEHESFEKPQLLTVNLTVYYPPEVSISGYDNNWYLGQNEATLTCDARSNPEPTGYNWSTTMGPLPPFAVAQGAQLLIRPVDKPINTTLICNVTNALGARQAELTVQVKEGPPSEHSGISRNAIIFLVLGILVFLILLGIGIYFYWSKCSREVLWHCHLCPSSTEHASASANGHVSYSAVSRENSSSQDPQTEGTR
# UniProt Q96RT8, whole entry: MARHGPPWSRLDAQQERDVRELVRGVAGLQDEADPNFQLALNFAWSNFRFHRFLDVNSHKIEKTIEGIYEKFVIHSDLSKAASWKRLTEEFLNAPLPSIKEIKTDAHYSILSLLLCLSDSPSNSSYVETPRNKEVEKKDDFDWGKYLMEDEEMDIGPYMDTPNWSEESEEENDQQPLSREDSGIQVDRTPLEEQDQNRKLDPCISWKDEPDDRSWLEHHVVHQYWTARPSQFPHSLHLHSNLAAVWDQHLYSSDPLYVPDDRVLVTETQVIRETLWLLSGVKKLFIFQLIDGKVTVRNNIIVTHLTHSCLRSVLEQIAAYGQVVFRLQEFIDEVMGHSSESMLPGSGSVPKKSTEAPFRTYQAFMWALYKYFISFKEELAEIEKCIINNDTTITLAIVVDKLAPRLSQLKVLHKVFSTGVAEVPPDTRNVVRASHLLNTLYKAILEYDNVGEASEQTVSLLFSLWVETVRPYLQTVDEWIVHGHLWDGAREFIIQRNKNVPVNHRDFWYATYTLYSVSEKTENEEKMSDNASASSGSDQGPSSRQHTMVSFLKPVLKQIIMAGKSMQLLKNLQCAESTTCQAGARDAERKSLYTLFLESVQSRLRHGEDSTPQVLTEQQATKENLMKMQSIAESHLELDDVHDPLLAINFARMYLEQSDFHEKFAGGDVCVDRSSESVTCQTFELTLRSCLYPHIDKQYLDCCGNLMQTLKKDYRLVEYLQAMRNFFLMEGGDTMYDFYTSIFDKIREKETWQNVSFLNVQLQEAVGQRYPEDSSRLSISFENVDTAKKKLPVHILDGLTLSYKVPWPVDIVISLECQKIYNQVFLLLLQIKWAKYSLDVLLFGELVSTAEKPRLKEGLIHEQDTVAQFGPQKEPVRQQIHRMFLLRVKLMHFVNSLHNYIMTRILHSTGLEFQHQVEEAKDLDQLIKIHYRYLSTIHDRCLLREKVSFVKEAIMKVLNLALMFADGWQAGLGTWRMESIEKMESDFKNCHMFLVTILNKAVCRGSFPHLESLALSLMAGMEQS
# UniProt O60841: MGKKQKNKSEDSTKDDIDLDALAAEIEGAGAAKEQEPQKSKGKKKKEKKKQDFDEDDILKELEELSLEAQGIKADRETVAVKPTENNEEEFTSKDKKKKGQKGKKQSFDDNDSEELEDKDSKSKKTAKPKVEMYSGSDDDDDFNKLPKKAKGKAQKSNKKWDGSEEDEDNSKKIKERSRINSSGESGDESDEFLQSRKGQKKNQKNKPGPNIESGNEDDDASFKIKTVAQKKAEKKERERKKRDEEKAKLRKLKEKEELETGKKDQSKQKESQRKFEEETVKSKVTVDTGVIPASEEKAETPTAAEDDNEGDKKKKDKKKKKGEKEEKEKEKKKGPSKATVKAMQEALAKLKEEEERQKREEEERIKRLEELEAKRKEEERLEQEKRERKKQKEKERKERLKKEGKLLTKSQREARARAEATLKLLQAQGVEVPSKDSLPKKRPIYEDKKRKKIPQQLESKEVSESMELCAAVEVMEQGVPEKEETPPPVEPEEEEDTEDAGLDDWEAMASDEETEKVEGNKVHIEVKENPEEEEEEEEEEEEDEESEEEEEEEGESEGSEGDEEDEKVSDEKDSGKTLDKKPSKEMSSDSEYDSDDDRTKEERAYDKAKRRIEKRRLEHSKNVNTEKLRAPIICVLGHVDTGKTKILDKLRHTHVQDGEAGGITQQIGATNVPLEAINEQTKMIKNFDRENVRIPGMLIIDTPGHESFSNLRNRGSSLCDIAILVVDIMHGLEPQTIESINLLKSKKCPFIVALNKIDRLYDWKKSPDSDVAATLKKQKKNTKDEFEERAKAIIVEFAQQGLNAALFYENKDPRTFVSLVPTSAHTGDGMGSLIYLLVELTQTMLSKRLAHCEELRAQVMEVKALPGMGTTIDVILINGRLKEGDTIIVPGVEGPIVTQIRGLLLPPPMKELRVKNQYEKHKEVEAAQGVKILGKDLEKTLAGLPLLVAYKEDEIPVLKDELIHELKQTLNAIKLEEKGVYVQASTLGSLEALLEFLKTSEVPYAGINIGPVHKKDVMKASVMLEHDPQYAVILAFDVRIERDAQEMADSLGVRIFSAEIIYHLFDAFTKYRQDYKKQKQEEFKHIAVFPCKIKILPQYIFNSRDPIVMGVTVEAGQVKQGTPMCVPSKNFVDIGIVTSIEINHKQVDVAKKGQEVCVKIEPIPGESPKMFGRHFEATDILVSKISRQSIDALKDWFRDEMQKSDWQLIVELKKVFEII
# UniProt Q9ULH1: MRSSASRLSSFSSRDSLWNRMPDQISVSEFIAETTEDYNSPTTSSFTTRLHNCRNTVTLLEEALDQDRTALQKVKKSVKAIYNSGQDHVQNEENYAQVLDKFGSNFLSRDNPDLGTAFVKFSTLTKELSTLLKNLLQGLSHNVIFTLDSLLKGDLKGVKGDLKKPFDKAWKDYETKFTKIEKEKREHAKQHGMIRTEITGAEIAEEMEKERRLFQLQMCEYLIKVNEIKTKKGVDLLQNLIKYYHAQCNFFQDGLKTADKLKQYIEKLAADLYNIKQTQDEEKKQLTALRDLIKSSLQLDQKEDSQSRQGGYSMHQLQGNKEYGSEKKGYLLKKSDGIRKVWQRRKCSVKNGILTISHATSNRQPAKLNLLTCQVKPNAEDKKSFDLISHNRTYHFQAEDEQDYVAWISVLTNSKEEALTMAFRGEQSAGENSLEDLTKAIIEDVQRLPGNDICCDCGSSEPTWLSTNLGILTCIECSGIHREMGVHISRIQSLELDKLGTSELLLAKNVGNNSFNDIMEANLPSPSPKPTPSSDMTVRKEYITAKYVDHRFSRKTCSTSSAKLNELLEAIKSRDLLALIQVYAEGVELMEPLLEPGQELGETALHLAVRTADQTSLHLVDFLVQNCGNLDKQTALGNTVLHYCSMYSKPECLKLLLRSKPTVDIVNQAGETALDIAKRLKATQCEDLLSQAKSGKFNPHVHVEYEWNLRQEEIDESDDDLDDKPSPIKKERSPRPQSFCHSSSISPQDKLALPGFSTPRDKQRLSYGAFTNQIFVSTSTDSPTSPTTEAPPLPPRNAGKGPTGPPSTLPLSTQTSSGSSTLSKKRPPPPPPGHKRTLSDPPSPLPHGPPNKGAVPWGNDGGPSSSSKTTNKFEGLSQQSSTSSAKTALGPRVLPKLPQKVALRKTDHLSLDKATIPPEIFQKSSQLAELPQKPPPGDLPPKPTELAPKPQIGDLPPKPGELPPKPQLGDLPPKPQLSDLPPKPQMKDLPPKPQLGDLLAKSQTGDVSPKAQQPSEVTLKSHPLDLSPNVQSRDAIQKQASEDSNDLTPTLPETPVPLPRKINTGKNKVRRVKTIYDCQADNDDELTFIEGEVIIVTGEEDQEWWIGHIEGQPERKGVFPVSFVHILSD
# Compound: Nc1ncnc2c1ncn2[C@@H]1O[C@H](COP(=O)(O)OP(=O)(O)OP(=O)(O)O)[C@@H](O)[C@H]1O [adenosine triphosphate]
# Experiment: NP40-soluble protein abundance relative to vehicle (solubility fold change) (ratio); higher = more soluble protein in presence of ATP
# In short: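 Jurkat crude lysate prepared with a Dounce homogeniser was treated at eight concentrations spanning 0.1 to 10 mM, 10 min at room temperature then 3 min at 37 °C. Solubilisation with 0.8% NP40 and benzonase and ultracentrifugation preceded TMT labelling of the supernatant for LC-MS/MS. Fold change against the detergent-processed vehicle was determined per replicate from vsn-normalised intensities, across three independent experiments.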
Target,NP40-soluble protein abundance (concentration: 1mM),NP40-soluble protein abundance (concentration: 2mM),NP40-soluble protein abundance (concentration: 4mM),NP40-soluble protein abundance (concentration: 6mM),NP40-soluble protein abundance (concentration: 8mM),NP40-soluble protein abundance (concentration: 10mM)
A0A0C4DGP0|E7EU35 and related entries (UniProt Q9UKF7),1.06 ± 0.097,1.04 ± 0.048,1.04 ± 0.05,1.02 ± 0.082,1.01 ± 0.091,1.06 ± 0.04
A0A0C4DGH2|P62070 and related entries (UniProt P62070),0.953 ± 0.029,0.983 ± 0.02,0.937 ± 0.042,0.922 ± 0.052,0.921 ± 0.025,0.947 ± 0.052
A0A0B4J2A4|P42765 (UniProt P42765),0.997 ± 0.015,0.9928 ± 0.006,0.945 ± 0.014,0.996 ± 0.025,0.951 ± 0.012,0.946 ± 0.019
A0A0D9SF54|A0A0D9SGF6|Q13813 and related entries (UniProt Q13813),0.834 ± 0.022,0.898 ± 0.053,0.898 ± 0.017,1.05 ± 0.077,0.998 ± 0.038,1.09 ± 0.051
A0A087WU53|Q9H0U3 (UniProt Q9H0U3),0.987 ± 0.075,0.967 ± 0.046,1 ± 0.1,0.945 ± 0.061,0.996 ± 0.056,0.979 ± 0.043
A0A087WX71|Q9H501 (UniProt Q9H501),1.03 ± 0.018,1.04 ± 0.019,1.06 ± 0.033,1.11 ± 0.034,1.09 ± 0.031,1.1 ± 0.015
A0A0A0MSE9|B7WPA5 and related entries (UniProt Q96CS7),1.15 ± 0.087,1.02 ± 0.045,1.06 ± 0.093,0.961 ± 0.11,1.08 ± 0.073,1.12 ± 0.18
A0A0A0MQS2|F5H0Q6 (UniProt Q8N2M8),1.08 ± 0.17,1.12 ± 0.14,1.13 ± 0.24,1.26 ± 0.17,1.17 ± 0.17,1.18 ± 0.093
A0A0A0MTB0|A0A0J9YYI4|D6RHG7 and related entries (UniProt Q86VE9),0.95 ± 0.043,0.972 ± 0.082,0.955 ± 0.059,0.972 ± 0.11,0.995 ± 0.15,0.962 ± 0.061
A0A075B7B5|A2RUF3 and related entries (UniProt O75044),1.03 ± 0.019,1.04 ± 0.021,1.05 ± 0.04,1.05 ± 0.028,1.032 ± 0.0069,1.04 ± 0.011
A0A0A0MTH3|Q13418 (UniProt Q13418),0.977 ± 0.047,0.956 ± 0.035,0.938 ± 0.042,0.92 ± 0.086,0.958 ± 0.045,0.951 ± 0.049
A0A087X0W8|Q04206 and related entries (UniProt Q04206),0.975 ± 0.02,0.982 ± 0.014,0.978 ± 0.014,0.965 ± 0.05,0.979 ± 0.017,0.971 ± 0.014
A0A087WZ13|E9PAU2 (UniProt Q8IY67),0.874 ± 0.019,0.884 ± 0.036,0.887 ± 0.022,0.887 ± 0.011,0.898 ± 0.031,0.908 ± 0.024
A0A087WXM6|A0A0A6YYL6|J3KRX5 and related entries (UniProt P18621),0.925 ± 0.091,0.852 ± 0.1,0.787 ± 0.13,0.766 ± 0.14,0.525 ± 0.091,0.8 ± 0.13
A0A0A0MTJ9|A0A0R4J2G3|Q6PIU2 and related entries (UniProt Q6PIU2),0.998 ± 0.025,1.04 ± 0.031,1.01 ± 0.02,1 ± 0.076,0.951 ± 0.043,1 ± 0.057
A0A0A0MSA9|A0A0C4DG49|P15151 and related entries (UniProt P15151),0.994 ± 0.058,0.9601 ± 0.0073,1.01 ± 0.0016,0.9909 ± 0.0035,1.01 ± 0.044,0.894 ± 0.096
A0A087X1Z1|A0A0G2JPW5|A0A0G2JQX1|A0A0G2JSA7|Q96RT8 and related entries (UniProt Q96RT8),0.996 ± 0.088,0.941 ± 0.057,0.994 ± 0.06,0.89 ± 0.048,0.982 ± 0.075,0.957 ± 0.076
A0A087X211|Q8TCG1 (UniProt Q8TCG1),1.03 ± 0.025,0.97 ± 0.024,0.958 ± 0.012,0.993 ± 0.016,0.9395 ± 0.006,0.944 ± 0.017
A0A0C4DGX2|E7ESL0 and related entries (UniProt Q9NWU5),1.01 ± 0.046,0.952 ± 0.11,0.936 ± 0.14,0.906 ± 0.2,0.939 ± 0.15,0.959 ± 0.17
A0A087WUT6|O60841 (UniProt O60841),0.938 ± 0.029,0.928 ± 0.014,0.9 ± 0.02,0.966 ± 0.011,0.935 ± 0.013,0.943 ± 0.021
A0A0A0MQU4|Q96I15 (UniProt Q96I15),0.9864 ± 0.0094,0.966 ± 0.017,0.992 ± 0.052,0.972 ± 0.024,0.988 ± 0.018,1.01 ± 0.039
A0A087WV73|P46087 and related entries (UniProt P46087),1.13 ± 0.076,1.21 ± 0.059,1.32 ± 0.047,1.41 ± 0.11,1.44 ± 0.084,1.55 ± 0.083
A0A087X1L0|Q9NS73 and related entries (UniProt Q9NS73),1.23 ± 0.2,1.09 ± 0.25,1.2 ± 0.15,1.09 ± 0.28,1.18 ± 0.23,1.21 ± 0.2
A0A0A0MRE5|Q9ULH1 and related entries (UniProt Q9ULH1),0.952 ± 0.021,0.965 ± 0.026,0.936 ± 0.046,0.961 ± 0.012,0.939 ± 0.0032,0.971 ± 0.049
A0A087X243|P09211 (UniProt P09211),0.983 ± 0.054,0.95 ± 0.017,0.899 ± 0.021,0.887 ± 0.052,0.954 ± 0.053,0.94 ± 0.048

# Fetched one by one from the list above:
Target,NP40-soluble protein abundance (concentration: 1mM),NP40-soluble protein abundance (concentration: 2mM),NP40-soluble protein abundance (concentration: 4mM),NP40-soluble protein abundance (concentration: 6mM),NP40-soluble protein abundance (concentration: 8mM),NP40-soluble protein abundance (concentration: 10mM)
A0A0A0MTJ9|A0A0R4J2G3|Q6PIU2 and related entries (UniProt Q6PIU2),0.998 ± 0.025,1.04 ± 0.031,1.01 ± 0.02,1 ± 0.076,0.951 ± 0.043,1 ± 0.057
A0A0B4J2A4|P42765 (UniProt P42765),0.997 ± 0.015,0.9928 ± 0.006,0.945 ± 0.014,0.996 ± 0.025,0.951 ± 0.012,0.946 ± 0.019

# Reference: the supplement of paper PMC6411743
